Measurements: PubChem BioAssay AID1347076 (National Center for Advancing Translational Sciences (NCATS), 2019)
“And” between values parts separate entries of the source, which are not always exact repeats. Equal values may be shown once. Screen size: about 400,000 compounds; about 13,000 (3.2%) were called active. This list was built around the results that the source calls inconclusive (neither active nor inactive); the mix of calls is not that of the screen. The call rests on the fitted dose curve; in most records, active means well fitted cell-killing curve with a large enough effect; inconclusive means small, poorly fitted or top-dose-only effect, or effect the other way; inactive means flat fitted curve, though single readings scatter. Where the call is inconclusive, the potency comes from a doubtful curve fit.

assay: qHTS assay for MDR1-selective chemotherapeutics: Primary screen using the drug-selected MDR subline cells KB-V1; conditions: KB-V1 MDR cells viability, CellTiter-Glo, 72 h; activity change, negative = cytotoxicity: at 46.1 µM (top of the series); further: nearly all actives have a fitted effect of over 60% in size
In short: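 KB-V1 cells (P-gp-expressing MDR subline of KB-3-1) in phenol-red-free DMEM with 10% FBS were exposed to library compounds over a concentration series for 72 h at 37 degrees C. Viability read by CellTiter-Glo luminescence; concentration-effect curves fitted after normalization.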
On the % scale 0 is the no-effect control and ±100 the full control effect; potency means the concentration at half of the fitted maximal effect.

| SMILES | Potency | activity change, negative = cytotoxicity |
| --- | --- | --- |
| CC(C)(C)c1ccc(C(=O)NC(=S)N2CCCCCC2)cc1 | inconclusive: 16.4 µM [cytotoxic, single point] |  |
| CC1Cc2c([nH]c3ccccc23)C(=O)N1 (configuration not stated) |  | inactive: 11.8% |
| CC1CCN(C2=NC(=O)/C(=C/c3ccccc3F)S2)CC1 |  | inactive: -27.3% |
| CCOc1ccc(NC(C)c2cc(Cl)ccc2O)cc1 (configuration not stated) |  | inactive: 3.81% |
| CC1CCC2C(=O)N(c3ccc(NC4CCN(Cc5ccccc5)CC4)c([N+](=O)[O-])c3)C(=O)C2C1 (configuration not stated) | inconclusive: 9.2 µM [cytotoxic, partial curve] |  |
| CCCCN(C(=O)c1cc(Cl)nc2ccccc12)c1c(N)n(CCCC)c(=O)[nH]c1=O | inconclusive: 0.411 µM [rising, full curve] |  |
| C[C@H](CO)N1C[C@H](C)[C@H](CN(C)Cc2ccccc2)Oc2ncc(Br)cc2C1=O | inconclusive: 16.4 µM [cytotoxic, single point] |  |
| COc1ccc(-c2cc(C(=O)Nc3ccccc3)on2)cc1 | inconclusive: 32.6 µM [rising, partial curve, poor fit] |  |
| CCCCn1c(=O)[nH]c(=O)c2c1nc(-c1cc(Cl)c(OC)c(OC)c1)n2C | inconclusive: 7.31 µM [cytotoxic, partial curve] |  |
| COc1ccc(CC(N)c2csc(NC(=O)c3cccs3)n2)cc1 (configuration not stated) | inconclusive: 10.3 µM [cytotoxic, partial curve, poor fit] |  |
| Cn1cc(/C=N/n2cnc3scc(-c4ccccc4)c3c2=O)c2ccccc21 | active: 2.06 µM |  |
| O=C(c1cc(-c2cccs2)on1)N1CCCCC1 | inconclusive: 18.4 µM [cytotoxic, partial curve, poor fit] |  |
| C#CCOCCOCCOCCNc1nc(N2CCOCC2)nc(N2CCN(C(=O)[C@H]([C@@H](C)CC)n3cc(CCCN=C(N)N)nn3)CC2)n1 | inconclusive: 29.1 µM [rising, single point] |  |
| O=C(NCCOc1cccc2cccnc12)c1cccs1 |  | inactive: -28.1% |
| CCOc1ccc2oc(C(=O)NC(C)(C)CC)c(C)c2c1 | inconclusive: 29.1 µM [cytotoxic, single point] |  |
| CCCCCc1ccc(S(=O)(=O)NCCc2ccncc2)cc1 | active: 3.26 µM |  |
| C[C@@H]1CN([C@H](C)CO)C(=O)c2cccc(NC(=O)Nc3ccc(F)cc3)c2O[C@H]1CN(C)C(=O)Nc1ccc(C(F)(F)F)cc1 | inconclusive: 29.1 µM [cytotoxic, single point] |  |
| COc1ccccc1OCc1ccc(C(=O)N2CCN(C(=O)c3ccco3)CC2)cc1 | active: 5.17 µM |  |
| Cc1cc(=O)n(CC(=O)O)c2ccccc12 | inconclusive: 32.6 µM [rising, single point] |  |
| Oc1c(Br)cc(Br)cc1/C=N/N1CCN(Cc2ccccc2)CC1 | inconclusive: 16.4 µM [cytotoxic, single point] |  |
| CCN(CC)c1ccc(C=Nc2ccccc2C)c(O)c1 | inconclusive: 29.1 µM [cytotoxic, partial curve, poor fit] |  |
| Cc1ccccc1NC(=O)CSc1nc2c(oc3ccccc32)c(=O)n1-c1ccccc1F |  | inactive: 2.36% |
| O=C1NC(Cc2c[nH]c3ccccc23)C(=O)N1Cc1ccc(CN2C(=O)NC(Cc3c[nH]c4ccccc34)C2=O)cc1 (configuration not stated) |  | inactive: 7.36% |
| COCCNC(=O)/C(C#N)=C/c1c(N2CCN(c3ccccc3)CC2)nc2c(C)cccn2c1=O |  | inactive: -19.3% |

For convenience, 3 of the compounds above:

| SMILES | Potency | activity change, negative = cytotoxicity |
| --- | --- | --- |
| Cc1ccccc1NC(=O)CSc1nc2c(oc3ccccc32)c(=O)n1-c1ccccc1F |  | inactive: 2.36% |
| O=C1NC(Cc2c[nH]c3ccccc23)C(=O)N1Cc1ccc(CN2C(=O)NC(Cc3c[nH]c4ccccc34)C2=O)cc1 (configuration not stated) |  | inactive: 7.36% |
| COCCNC(=O)/C(C#N)=C/c1c(N2CCN(c3ccccc3)CC2)nc2c(C)cccn2c1=O |  | inactive: -19.3% |

Next part.

| SMILES | Potency | activity change, negative = cytotoxicity |
| --- | --- | --- |
| CC(C)n1nnnc1SCC(=O)c1c(N)n(C2CC2)c(=O)[nH]c1=O | inconclusive: 1.64 µM [rising, full curve] |  |
| CCOc1cnc(-c2ccc(OC)cc2)o1 | inconclusive: 18.4 µM [rising, single point] |  |
| CCOCCCNC(=O)c1ccc(C2SCC(=O)N2Cc2ccccc2)cc1 (configuration not stated) | active: 5.8 µM |  |
| CCCNC(=O)CN1C(=O)c2cccnc2Sc2ccccc21 |  | inactive: -0.0728% |
| CC1=CC(C)(C)N(S(=O)(=O)c2ccc(C)cc2)c2ccc(C)cc21 | inconclusive: 3.66 µM [cytotoxic, partial curve, poor fit] |  |
| COc1cc(NS(=O)(=O)c2ccc3c(c2)C(C)(C)C(=O)N3C)cc(OC)c1 |  | inactive: 28% |
| Cc1ccc(C)c(S(=O)(=O)Nc2ccc3sc(C)nc3c2)c1 | inconclusive: 22.4 µM [cytotoxic, single point] |  |
| O=C(NCc1ccccc1)C1C(c2ccc3c(c2)OCO3)=Nc2ccccc2N1C(=O)c1cccc(C(F)(F)F)c1 (configuration not stated) | inconclusive: 6.51 µM [cytotoxic, partial curve, poor fit] |  |
| Cn1c(=O)n(C)c2cc(S(=O)(=O)N3CCCc4ccccc43)ccc21 | active: 8.2 µM |  |
| COc1cccc(/C=C2\SC(=O)N(CCC(=O)NC3CCS(=O)(=O)C3)C2=O)c1 (configuration not stated) | inconclusive: 29.1 µM [rising, single point] |  |
| COc1ccc(NC(=O)c2sccc2SCc2cccc(C(F)(F)F)c2)cc1 | active: 16.4 µM |  |
| CCOC(=O)C1=C(COC(=O)CCc2ccc(CC)cc2)NC(=O)NC1C (configuration not stated) |  | inactive: 0.172% |
| COc1cc(/C=C/c2ccnc3ccccc23)cc(OC)c1OC | inconclusive: 29.1 µM [cytotoxic, single point] |  |
| CC(CN1CCC(n2nccc2NC(=O)c2ccccc2Cl)CC1)c1ccccc1 (configuration not stated) | inconclusive: 8.2 µM [cytotoxic, partial curve] |  |
| CC(=O)Nc1cc(-c2ccc(N3CCN(C)CC3)cc2)cn2c(-c3ccccc3)cnc12 |  | inactive: -14.7% |
| CCCOc1cccc(C(=O)Nc2ccc(-c3nc4ccccc4o3)cc2)c1 |  | inactive: -7.91% |
| CCOC(=O)c1cc(NC(=O)C2C3CCC(O3)C2C(=O)O)cc(C(=O)OCC)c1 (configuration not stated) | active: 23.1 µM |  |
| CCc1cc(=O)[nH]c(SCC(=O)NCc2ccc3c(c2)OCO3)n1 |  | inactive: 34.6% |
| Cc1cccc2[nH]c3c(N4CCC5(CC4)OCCO5)ncnc3c12 | inconclusive: 18.4 µM [cytotoxic, single point] |  |
| Cn1cccc1-c1cc(C(=O)N/N=C/c2cccc(O)c2)[nH]n1 |  | inactive: 2.32% |
| O=C(CSc1nc2c(c(=O)[nH]1)CN(Cc1ccc3c(c1)OCO3)CC2)Nc1ccc(F)cc1 | inconclusive: 29.1 µM [rising, single point] |  |
| CC(=O)c1ccc(NC(=S)NCCc2ccc(S(N)(=O)=O)cc2)cc1 |  | inactive: 2% |
| O=C(N/N=C/c1ccccc1O)c1ccncc1 |  | inactive: -20.4% |
| CC(C)(C)N(NC(=O)Nc1ccc(Cl)c(Cl)c1)C(=O)c1ccccc1 | active: 23.1 µM |  |

| SMILES | Potency | activity change, negative = cytotoxicity |
| --- | --- | --- |
| CCCc1ccc(C(=O)CN2C(=O)C(=O)N(C3CCCC3)C2=O)cc1 | inconclusive: 29.1 µM [rising, single point] |  |
| CCN1CCN(c2nnc(-c3ccccc3)c3ccccc23)CC1 | inconclusive: 23.1 µM [rising, partial curve, poor fit] |  |
| COc1cc(OC)cc(-n2c(=O)c3ccccc3n(CC(=O)NCCc3ccc(OC)c(OC)c3)c2=O)c1 | inconclusive: 14.6 µM [rising, single point] |  |
| COc1ccc2cc(CNc3ccc(OC)c(OC)c3)c(=O)n(CC(=O)Nc3ccc(C)cc3)c2c1 |  | inactive: -20.5% |
| N#CC1(NC(=O)COC(=O)c2cccc(-n3cnnn3)c2)CCCCC1 | inconclusive: 23.1 µM [rising, single point] |  |
| Cn1c(=O)[nH]c(=O)c2c1nc1n2CC(O)CN1c1ccccc1 (configuration not stated) | inconclusive: 29.1 µM [rising, single point] |  |
| O=C(NC1CCCCC1)C(c1ccccc1F)n1c(=O)c(-c2cc3ccccc3[nH]2)nc2ccccc21 (configuration not stated) | inconclusive: 23.1 µM [cytotoxic, partial curve, poor fit] |  |
| O=C(CSc1nnc(Cn2nnc(-c3ccccc3)n2)n1-c1ccccc1)Nc1ccccc1 | active: 14.6 µM |  |
| Cc1ccc(Cl)cc1NS(=O)(=O)c1ccccc1 |  | inactive: 8.21% |
| COc1cc(-c2c(-c3ccc4c(c3)OCO4)noc2C)ccc1F | active: 5.8 µM and inconclusive: 29.1 µM [cytotoxic, single point] |  |
| Cc1ccc(NC2CCCN(C(=O)C3CCCCC3)C2)cc1C (configuration not stated) |  | inactive: -1.79% |
| N/C(=N\OC(=O)c1cc(Cl)ccc1Cl)c1ccncc1 | inconclusive: 29.1 µM [cytotoxic, single point] |  |
| CC(C)(C)NC(=O)COc1ccc(CNCCc2ccccc2)cc1 |  | inconclusive: -5.23% |
| O=c1ccn([C@@H]2O[C@H](CNCc3ccccc3)[C@@H](O)[C@H]2O)c(=O)[nH]1 |  | inactive: 14.1% |
| CCOC(=O)N1CCC(NC(=O)c2cc(S(=O)(=O)N3CCc4ccccc43)cn2C)CC1 | active: 3.26 µM |  |
| Cc1cccc(NC(=O)[C@@H](CC(C)C)NC(=O)[C@@H]2Cc3ccccc3CN2)c1 |  | inactive: -3.71% |
| CC(C)(C)N1OC2CC1c1nc3ccccc3n1C2 (configuration not stated) | inconclusive: 29.1 µM [rising, single point] |  |
| COCCOC(=O)c1c(NC(=O)CN(C)c2ccccc2)sc(C(N)=O)c1C | inconclusive: 11.6 µM [cytotoxic, partial curve] |  |
| O=C(CN1N=C(c2ccc(Cl)cc2)CCC1=O)NCc1cccnc1 |  | inactive: 21.5% |
| Cc1ccccc1C(=O)Nc1cccc(C(=O)N/N=C/c2ccccn2)c1 |  | inactive: 3.45% |
| COc1ccc(Cl)cc1NC(=S)N(CCCN1CCOCC1)Cc1cn(C)c2ccccc12 |  | inactive: -18.1% |
| Cc1ccc(-c2nc(C(Cl)Cl)c3ccccc3n2)cc1 | active: 20.6 µM |  |
| COc1ccccc1OCC(=O)Nc1ccc(N2CCOCC2)cc1N1CCOCC1 | inconclusive: 8.2 µM [cytotoxic, partial curve, poor fit] |  |
| COc1cccc(-c2nc(C(N)=O)c3c(n2)n(-c2ccc4c(c2)OCO4)c(=O)n3C)c1OC | inconclusive: 20.6 µM [cytotoxic, partial curve, poor fit] |  |
